Experimental findings from article doi:10.1101/859587 are described below.

Protein sequences, listed by entry. Tags and fused reporters are not part of them. Lines headed by an entry give the natural chain unless they say otherwise; changes in a name come on top. Residues count along the entry.
UniProt Q9JLB9, 58-549: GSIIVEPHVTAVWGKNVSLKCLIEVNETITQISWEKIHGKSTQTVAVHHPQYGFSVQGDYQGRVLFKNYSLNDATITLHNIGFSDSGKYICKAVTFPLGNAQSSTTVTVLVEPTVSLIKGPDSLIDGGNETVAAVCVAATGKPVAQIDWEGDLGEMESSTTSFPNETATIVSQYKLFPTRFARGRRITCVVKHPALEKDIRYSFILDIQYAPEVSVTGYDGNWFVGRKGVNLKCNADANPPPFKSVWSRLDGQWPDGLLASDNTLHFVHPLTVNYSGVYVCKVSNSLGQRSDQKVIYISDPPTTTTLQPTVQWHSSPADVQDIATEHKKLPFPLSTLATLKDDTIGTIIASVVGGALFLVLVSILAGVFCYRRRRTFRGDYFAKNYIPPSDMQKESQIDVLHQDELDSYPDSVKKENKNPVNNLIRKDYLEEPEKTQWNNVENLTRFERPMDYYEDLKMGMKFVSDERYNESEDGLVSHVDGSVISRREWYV
UniProt Q8C863, whole entry: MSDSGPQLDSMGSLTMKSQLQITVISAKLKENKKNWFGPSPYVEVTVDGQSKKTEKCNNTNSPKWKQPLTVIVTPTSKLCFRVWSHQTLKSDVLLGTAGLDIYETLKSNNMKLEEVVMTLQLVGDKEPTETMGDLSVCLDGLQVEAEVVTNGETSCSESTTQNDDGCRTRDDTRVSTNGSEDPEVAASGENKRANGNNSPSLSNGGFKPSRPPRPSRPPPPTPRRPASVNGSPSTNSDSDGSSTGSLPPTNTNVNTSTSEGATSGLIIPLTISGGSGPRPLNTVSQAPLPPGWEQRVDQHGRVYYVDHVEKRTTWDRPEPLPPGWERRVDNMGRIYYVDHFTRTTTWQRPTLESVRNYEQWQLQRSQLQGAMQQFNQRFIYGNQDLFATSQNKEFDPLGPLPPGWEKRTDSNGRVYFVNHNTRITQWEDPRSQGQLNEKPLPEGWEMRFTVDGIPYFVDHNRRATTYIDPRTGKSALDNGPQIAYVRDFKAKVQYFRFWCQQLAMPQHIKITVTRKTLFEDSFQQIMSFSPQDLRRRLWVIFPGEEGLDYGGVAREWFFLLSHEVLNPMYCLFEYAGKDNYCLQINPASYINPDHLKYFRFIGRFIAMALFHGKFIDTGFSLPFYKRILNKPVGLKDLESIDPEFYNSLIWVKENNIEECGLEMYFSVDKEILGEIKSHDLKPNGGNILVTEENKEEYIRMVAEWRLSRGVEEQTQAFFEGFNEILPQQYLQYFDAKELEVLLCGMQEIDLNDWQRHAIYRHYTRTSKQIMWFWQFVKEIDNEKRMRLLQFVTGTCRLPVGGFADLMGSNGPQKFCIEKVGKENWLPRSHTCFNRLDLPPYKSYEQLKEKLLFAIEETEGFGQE
UniProt P46934, whole entry: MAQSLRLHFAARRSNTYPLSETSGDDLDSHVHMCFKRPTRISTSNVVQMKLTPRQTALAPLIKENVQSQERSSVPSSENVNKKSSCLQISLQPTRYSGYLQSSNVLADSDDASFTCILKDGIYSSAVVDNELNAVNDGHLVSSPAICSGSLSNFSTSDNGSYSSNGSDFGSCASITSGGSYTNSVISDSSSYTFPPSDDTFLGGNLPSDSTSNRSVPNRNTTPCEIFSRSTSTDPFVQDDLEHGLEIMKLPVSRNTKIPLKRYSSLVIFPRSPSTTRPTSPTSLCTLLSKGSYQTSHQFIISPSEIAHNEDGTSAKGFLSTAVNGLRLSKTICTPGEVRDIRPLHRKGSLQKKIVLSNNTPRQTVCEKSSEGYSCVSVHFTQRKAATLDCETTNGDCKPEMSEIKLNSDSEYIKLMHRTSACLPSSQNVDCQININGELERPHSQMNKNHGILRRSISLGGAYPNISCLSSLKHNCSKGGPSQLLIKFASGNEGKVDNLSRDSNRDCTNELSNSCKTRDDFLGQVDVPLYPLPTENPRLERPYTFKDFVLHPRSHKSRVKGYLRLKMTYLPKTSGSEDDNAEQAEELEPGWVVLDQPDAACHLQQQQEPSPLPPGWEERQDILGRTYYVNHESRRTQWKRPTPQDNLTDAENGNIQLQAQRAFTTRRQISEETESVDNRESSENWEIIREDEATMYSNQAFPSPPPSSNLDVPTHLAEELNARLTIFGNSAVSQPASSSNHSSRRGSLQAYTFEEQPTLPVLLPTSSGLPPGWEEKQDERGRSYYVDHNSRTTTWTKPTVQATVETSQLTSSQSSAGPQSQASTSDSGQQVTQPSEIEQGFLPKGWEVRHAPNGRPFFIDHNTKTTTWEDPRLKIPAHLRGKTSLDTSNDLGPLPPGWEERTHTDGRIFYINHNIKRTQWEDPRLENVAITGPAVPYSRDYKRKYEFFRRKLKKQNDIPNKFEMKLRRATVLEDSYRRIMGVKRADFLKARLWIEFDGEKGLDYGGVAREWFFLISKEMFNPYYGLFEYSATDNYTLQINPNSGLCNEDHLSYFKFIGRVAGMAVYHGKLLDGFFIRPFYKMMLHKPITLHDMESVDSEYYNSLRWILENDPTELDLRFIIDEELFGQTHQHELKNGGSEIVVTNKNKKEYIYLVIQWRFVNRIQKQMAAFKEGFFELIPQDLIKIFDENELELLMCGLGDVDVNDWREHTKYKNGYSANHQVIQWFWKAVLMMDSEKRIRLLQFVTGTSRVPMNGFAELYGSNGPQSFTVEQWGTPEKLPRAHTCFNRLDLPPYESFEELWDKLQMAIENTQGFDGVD
UniProt P46935, whole entry: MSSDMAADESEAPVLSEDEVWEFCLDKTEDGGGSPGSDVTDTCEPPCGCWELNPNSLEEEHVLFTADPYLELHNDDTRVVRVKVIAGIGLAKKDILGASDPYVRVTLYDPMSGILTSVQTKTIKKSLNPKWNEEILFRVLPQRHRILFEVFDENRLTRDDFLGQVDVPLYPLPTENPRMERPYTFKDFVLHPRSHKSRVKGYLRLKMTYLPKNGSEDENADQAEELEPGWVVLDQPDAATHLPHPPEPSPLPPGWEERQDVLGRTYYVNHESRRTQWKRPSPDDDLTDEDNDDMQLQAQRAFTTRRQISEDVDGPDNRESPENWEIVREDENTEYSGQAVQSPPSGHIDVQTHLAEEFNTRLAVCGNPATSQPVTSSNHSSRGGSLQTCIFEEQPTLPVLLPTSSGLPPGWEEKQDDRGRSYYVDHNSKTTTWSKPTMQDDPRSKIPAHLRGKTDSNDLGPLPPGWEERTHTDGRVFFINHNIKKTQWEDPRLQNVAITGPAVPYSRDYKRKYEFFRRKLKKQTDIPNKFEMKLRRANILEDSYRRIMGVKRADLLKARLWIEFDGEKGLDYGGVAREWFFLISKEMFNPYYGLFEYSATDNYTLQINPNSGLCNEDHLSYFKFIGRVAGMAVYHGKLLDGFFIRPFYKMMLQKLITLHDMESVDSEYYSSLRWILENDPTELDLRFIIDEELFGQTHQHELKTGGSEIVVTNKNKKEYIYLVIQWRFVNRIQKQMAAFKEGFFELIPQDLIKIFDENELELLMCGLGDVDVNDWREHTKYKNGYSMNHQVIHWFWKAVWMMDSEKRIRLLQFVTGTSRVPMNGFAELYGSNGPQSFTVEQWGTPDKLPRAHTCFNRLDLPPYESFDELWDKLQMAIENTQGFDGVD
UniProt P19491, 22-883: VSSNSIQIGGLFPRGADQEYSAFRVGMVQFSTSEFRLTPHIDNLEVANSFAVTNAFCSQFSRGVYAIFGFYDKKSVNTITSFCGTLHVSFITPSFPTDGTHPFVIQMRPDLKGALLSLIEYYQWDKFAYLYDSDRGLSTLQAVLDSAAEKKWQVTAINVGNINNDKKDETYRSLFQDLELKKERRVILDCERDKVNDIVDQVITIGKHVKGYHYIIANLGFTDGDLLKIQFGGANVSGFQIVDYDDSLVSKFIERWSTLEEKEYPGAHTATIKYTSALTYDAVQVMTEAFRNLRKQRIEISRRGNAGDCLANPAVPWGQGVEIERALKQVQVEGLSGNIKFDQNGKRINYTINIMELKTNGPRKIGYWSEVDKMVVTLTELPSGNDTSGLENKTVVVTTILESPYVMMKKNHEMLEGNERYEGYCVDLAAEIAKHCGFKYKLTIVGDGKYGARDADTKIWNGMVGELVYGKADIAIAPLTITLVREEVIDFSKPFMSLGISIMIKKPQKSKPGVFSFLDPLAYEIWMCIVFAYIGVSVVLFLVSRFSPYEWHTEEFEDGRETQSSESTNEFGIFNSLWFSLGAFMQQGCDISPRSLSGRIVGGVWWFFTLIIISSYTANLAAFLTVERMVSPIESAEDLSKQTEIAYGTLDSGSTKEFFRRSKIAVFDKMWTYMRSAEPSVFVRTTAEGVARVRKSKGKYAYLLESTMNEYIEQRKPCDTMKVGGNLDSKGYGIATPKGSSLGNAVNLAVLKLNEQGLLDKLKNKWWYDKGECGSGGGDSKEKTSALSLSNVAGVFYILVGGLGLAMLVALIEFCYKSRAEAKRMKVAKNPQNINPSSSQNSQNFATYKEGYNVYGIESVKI

Positions count from the first letter of the chain named. No constants are given. Whether binding was seen depends on the method and setting. Binding seen in cells or lysates may run through a third protein. Some results given as binding are weak or reduced against the parent protein; the word gives no strength. For some of these results: Sequences can lack the tags named with a protein.

Experiment [1] deals with T1, HA-tagged full length SUSD4 (mouse) (UniProt Q8BH32).
T1 sequence: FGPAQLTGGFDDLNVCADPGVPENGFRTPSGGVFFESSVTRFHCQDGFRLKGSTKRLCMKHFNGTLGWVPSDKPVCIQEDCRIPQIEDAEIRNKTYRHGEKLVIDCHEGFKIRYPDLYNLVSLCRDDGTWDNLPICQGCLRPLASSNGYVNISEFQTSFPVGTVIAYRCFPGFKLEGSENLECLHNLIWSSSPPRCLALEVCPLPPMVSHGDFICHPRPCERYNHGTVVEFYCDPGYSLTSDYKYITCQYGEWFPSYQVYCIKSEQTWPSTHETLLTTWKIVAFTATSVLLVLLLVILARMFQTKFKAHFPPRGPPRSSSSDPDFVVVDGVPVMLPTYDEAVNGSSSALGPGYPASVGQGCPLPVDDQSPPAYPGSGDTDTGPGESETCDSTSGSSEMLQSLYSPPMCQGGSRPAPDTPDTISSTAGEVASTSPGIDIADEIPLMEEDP
Kind of experiment: pull-down.

Experiment [2] has as its target T2, HA-SUSD4-ΔLY (point mutation of the LPxY site) (mouse) (UniProt Q8BH32).
T2 sequence: T1 sequence with L335A, Y338A
In words: co-IP.

The target of experiment [3] is T1, HA-tagged full length SUSD4 (mouse). In words: co-IP.
The target of experiment [4] is T3, HA-SUSD4-ΔPY (point mutation of the PPxY site) (mouse) (UniProt Q8BH32).
T3 sequence: T1 sequence with P370A, Y373A
Kind of experiment: co-IP.

The target of experiment [5] is T4, HA-SUSD4-ΔPY/LY (double mutant at both PPxY and LPxY) (mouse) (UniProt Q8BH32).
T4 sequence: T1 sequence with L335A, Y338A, P370A, Y373A
In words: co-IP.

Experiment [6] concerns the target T5, HA-SUSD4ΔNT (lacking the extracellular domain) (mouse) (UniProt Q8BH32).
T5 sequence: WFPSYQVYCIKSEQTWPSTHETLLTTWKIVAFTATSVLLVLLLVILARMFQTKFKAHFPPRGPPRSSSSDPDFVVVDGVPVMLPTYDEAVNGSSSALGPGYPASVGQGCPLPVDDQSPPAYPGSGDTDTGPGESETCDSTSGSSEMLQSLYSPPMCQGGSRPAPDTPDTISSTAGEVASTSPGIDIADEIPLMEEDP
Kind of experiment: co-IP.

Experiment [7] deals with PVRL3α (control transmembrane protein) (UniProt Q9JLB9). In words: co-IP.
Experiment [8] deals with T6, HA-SUSD4-NT (extracellular form of SUSD4) (mouse) (UniProt Q8BH32).
T6 sequence: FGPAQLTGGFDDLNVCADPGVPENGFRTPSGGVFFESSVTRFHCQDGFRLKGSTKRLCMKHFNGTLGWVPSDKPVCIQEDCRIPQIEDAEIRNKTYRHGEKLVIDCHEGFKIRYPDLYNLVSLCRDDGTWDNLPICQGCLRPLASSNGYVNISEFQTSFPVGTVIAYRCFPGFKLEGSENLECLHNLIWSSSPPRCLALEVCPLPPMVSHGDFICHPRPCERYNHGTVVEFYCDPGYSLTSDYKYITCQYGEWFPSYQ
In words: co-IP.

Take “ITCH (from UniProt Q8C863 1-864) (enzyme)”: the binding result in experiment [1] is “binds”.
Consider “NEDD4 (HEK293 cells) (from UniProt P46934 1-1319) (enzyme)”, for which the binding result in experiment [2] is listed as “no binding”; in experiment [3] it was “binds”; in experiment [4], “binds”; in experiment [5], “no binding”.
As for “NEDD4 (mouse cerebellar synaptosomes) (from UniProt P46935 1-887) (enzyme)”, the binding entry in experiment [1] is “binds”.
Regarding “SEP-tagged GLUA2 (from UniProt P19491 22-883) (receptor)”, the binding entry in experiment [2] is “binds”; in experiment [3] it was “binds”; in experiment [6], “binds”; in experiment [7], “no binding”; in experiment [8], “binds”; in experiment [5], “binds”.
“WWP1 (from UniProt Q8BZZ3 1-918) (enzyme)”: the binding entry in experiment [1] is on record as “binds”.
